{"source": "paper PMC3335857", "about": "“Heme Oxygenase Isoforms Differ in Their Subcellular Trafficking during Hypoxia and Are Differentially Modulated by Cytochrome P450 Reductase” (PLoS ONE, 2012)", "key": {"[1]": {"molecular_target": "T1, CFP-HO-1ΔC266 in HEK293 cells (human) (UniProt P09601)", "T1 sequence": "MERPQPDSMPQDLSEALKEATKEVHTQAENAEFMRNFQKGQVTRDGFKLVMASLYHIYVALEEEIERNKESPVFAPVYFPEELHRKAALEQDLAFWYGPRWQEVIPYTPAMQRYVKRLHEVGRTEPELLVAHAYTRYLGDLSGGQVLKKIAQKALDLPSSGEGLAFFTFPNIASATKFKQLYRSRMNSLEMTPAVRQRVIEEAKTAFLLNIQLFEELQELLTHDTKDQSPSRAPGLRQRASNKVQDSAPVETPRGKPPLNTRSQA", "assay": "FRET or BRET; FLIM-FRET in intact HEK293 cells at 37°C, co-transfected with CFP-HO (donor) and CPR-YFP (acceptor); CFP-HO-1 single transfection as donor control"}, "[2]": {"molecular_target": "T2, CFP-HO-2ΔC289 in HEK293 cells (human) (UniProt P30519)", "T2 sequence": "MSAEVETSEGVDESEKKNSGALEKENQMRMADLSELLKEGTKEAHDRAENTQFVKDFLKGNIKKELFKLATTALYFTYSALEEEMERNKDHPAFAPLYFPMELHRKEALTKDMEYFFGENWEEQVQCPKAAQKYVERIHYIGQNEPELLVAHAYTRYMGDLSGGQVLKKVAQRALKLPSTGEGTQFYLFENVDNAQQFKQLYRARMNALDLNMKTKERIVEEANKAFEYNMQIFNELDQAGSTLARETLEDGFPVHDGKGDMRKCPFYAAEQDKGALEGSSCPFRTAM", "assay": "FRET or BRET; FLIM-FRET in intact HEK293 cells at 37°C, co-transfected with CFP-HO (donor) and CPR-YFP (acceptor); CFP-HO-1 single transfection as donor control"}}, "note": "No constants are given. Whether binding was seen depends on the method and setting. Binding seen in cells or lysates may run through a third protein. Tags and fused reporters may be left off the sequences shown."}
{"binder": "CPR-YFP in HEK293 cells (enzyme, UniProt P16435 1-677) MGDSHVDTSSTVSEAVAEEVSLFSMTDMILFSLIVGLLTYWFLFRKKKEEVPEFTKIQTLTSSVRESSFVEKMKKTGRNIIVFYGSQTGTAEEFANRLSKDAHRYGMRGMSADPEEYDLADLSSLPEIDNALVVFCMATYGEGDPTDNAQDFYDWLQETDVDLSGVKFAVFGLGNKTYEHFNAMGKYVDKRLEQLGAQRIFELGLGDDDGNLEEDFITWREQFWPAVCEHFGVEATGEESSIRQYELVVHTDIDAAKVYMGEMGRLKSYENQKPPFDAKNPFLAAVTTNRKLNQGTERHLMHLELDISDSKIRYESGDHVAVYPANDSALVNQLGKILGADLDVVMSLNNLDEESNKKHPFPCPTSYRTALTYYLDITNPPRTNVLYELAQYASEPSEQELLRKMASSSGEGKELYLSWVVEARRHILAILQDCPSLRPPIDHLCELLPRLQARYYSIASSSKVHPNSVHICAVVVEYETKAGRINKGVATNWLRAKEPAGENGGRALVPMFVRKSQFRLPFKATTPVIMVGPGTGVAPFIGFIQERAWLRQQGKEVGETLLYYGCRRSDEDYLYREELAQFHRDGALTQLNVAFSREQSHKVYVQHLLKQDREHLWKLIEGGAHIYVCGDARNMARDVQNTFYDIVAELGAMEHAQAVDYIKKLMTKGRYSLDVWS", "values": [{"measurement": "binding", "setting": "[1]", "result": "no binding"}, {"measurement": "binding", "setting": "[2]", "result": "no binding"}]}
